Data as given in PubChem BioAssay AID638 (SRMLSC, 2007).
About 65 (5%) of roughly 1,300 compounds were called active.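 How the source made its calls: active means growth inhibition reaching a set limit at one or more tested doses; inactive means the rest.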 Some of the results follow. Entries with a potency or affinity are not part of this list.

Experiment: growth inhibition of wild-type E. coli, dose response, BW25113 wild type, OD615 (AID 638)
Conditions: at 100 µM (top of the series) unless noted
How it was run: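 Assay system: E. coli BW25113 wild type. Doses: compound concentration series. Timing: 20 h compound exposure, 37 °C. Technique: OD615 absorbance. Medium: LB broth containing kanamycin at 50 µg/mL. Benchmarks: chloramphenicol at 30 µM final as inhibition control. Measure: IC50 from 4-parameter logistic, bounds fixed 0–100%.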

Growth inhibition, inactive:
Brc1cc(Br)c2ncnc(N3CCCCC3)c2c1 7.11%
Cc1ccc(S(=O)(=O)NCCSc2nnnn2-c2cc(C)ccc2C)cc1 5.61%
O=C(Nc1ccc2oc(Cc3ccc(Cl)cc3)nc2c1)c1cccnc1 10.1%
CCCOc1nc2c(c(=O)n(C)c(=O)n2C)n1Cc1cccc2ccccc12 1.29%
Cc1csc(SCC(=O)Nc2nc(-c3ccccc3)cs2)n1 3.26%
CCCc1cc(C(=O)Nc2cccc(Cl)c2)no1 12.5%
Cc1cc(-c2nnc3n2N=C(c2ccc(-c4ccccc4)cc2)CS3)n[nH]1 1.86%
CCc1nc(N2CCCCC2C)c2oc3ccccc3c2n1 (stereo unspecified) 4.41%
CCOc1cc(-c2c(C#N)c(=O)[nH]c3c2c(C)nn3-c2ccc(F)cc2)ccc1O -1.32%
CCOC(=O)Cc1nnc2c(Nc3ccccc3F)nc3nonc3n12 -6.59%
CSc1nc(N2CCOCC2)c2c3c(sc2n1)CCCC3 -3.25%
Fc1ccc(-c2cc(C(F)(F)F)nc(NCC3CCCO3)n2)cc1 (stereo unspecified) -1.79%
COc1ccc(-c2cc(C(=O)N3CCCc4ccccc43)no2)cc1 5.16%
CCN(CCCNC(=O)c1[nH]c(C)c(C(C)=O)c1C)c1cccc(C)c1 -6.46%
Cn1c(C(=O)N2CCN(c3cccc(C(F)(F)F)c3)CC2)cc2sccc21 1.44%
CCOc1ccc(-c2nc(C#N)c(N3CCCCCC3)o2)cc1 -6.33%
Cc1cccc2cc(C(c3nnnn3CC3CCCO3)N3CCc4ccccc4C3)c(=O)[nH]c12 (stereo unspecified) 7.76%
CCC1CCCCN1C(=O)c1cc(-c2ccc(Cl)c(Cl)c2)on1 (stereo unspecified) 4.27%
CCOC(=O)c1cc2cc(-c3c(C(=O)OCC)oc4cc(O)cc(O)c4c3=O)ccc2o1 6.59%
Cc1ccc(-c2nnn(CC(=O)N(Cc3cccs3)C(C(=O)NC(C)(C)C)c3ccco3)n2)o1 (stereo unspecified) -15.2%
Cc1nc2nc(-c3ccco3)[nH]n2c(=O)c1Cc1ccccc1 3.72%
O=C(Nc1nc(-c2ccccc2)ns1)c1cccs1 -6.42%
COc1ccc(C2(O)CC3CCC(C2)N3c2nc(C)cc(C)c2C#N)cc1 (stereo unspecified) -2.64%
CCCn1c(CNc2ccc(Br)cc2)nc2ccccc21 7.8%
COc1ccc(S(=O)(=O)N(Cc2cccs2)C2CCCC2)cc1 -1.98%
O=C(Nc1cccc2cccnc12)c1ccc(Br)o1 1.98%
Cc1nc(N2CCN(c3ccccc3)CC2)nc2c1C(=O)CCC2 4.77%
Cc1nn(-c2ccccc2)c2[nH]c(=O)c(CNCc3ccc4c(c3)OCO4)cc12 10.1%
CCOC(=O)Cc1ccc(NS(=O)(=O)c2ccc(SC)cc2)cc1 2.46%
Cc1c(-c2nc(N)nc(Nc3ccccc3)n2)oc2ccccc12 -6.98%
Cc1onc(-c2c(F)cccc2Cl)c1C(=O)Nc1nc2c(s1)CCCC2 -5.05%
CCC(Sc1nnc(-c2ccc(C)c(Cl)c2)n1CC)C(=O)Nc1nccs1 (stereo unspecified) 5.37%
COC(=O)C1=C(CSc2nc3ccccc3o2)NC(=O)NC1c1cc(C)ccc1C (stereo unspecified) 14.1%
CC1CN(c2nc3c(c(=O)n(Cc4ccc(Cl)c(Cl)c4)c(=O)n3C)n2C)CC(C)O1 (stereo unspecified) -5.27%
Cc1onc(-c2ccccc2)c1C(=O)OCC(=O)c1ccccc1 1.87%
CCOC(=O)c1ccc(-n2[nH]c(-c3ccccc3)cc2=O)cc1 6.72%
COc1ccc(-c2cc(C(=O)N3CCc4ccccc4C3)no2)cc1OC 1.02%
Cc1ccc2c(c1)c1c(n2CC(O)Cn2c(C)nc3ccccc32)/C(=N\O)CCC1 (stereo unspecified) -3.7%
Cc1cc(NC(=O)COC(=O)C(Nc2ccc(C(F)(F)F)cc2Cl)C(C)C)no1 (stereo unspecified) 7.37%
O=C(NCc1ccco1)c1sc(=S)n2c1[nH]c(=O)c1ccccc12 -2.12%
Cc1nn(Cc2ccc(Cl)cc2)c(C)c1NC(=O)c1noc2c1CCCCC2 -3.16%
CN(Cc1ccccc1)Cc1nc2c(c(=O)n(C)c(=O)n2C)n1CCCc1ccccc1 -6.47%
CCOC(=O)c1sc(NC(=O)CSc2n[nH]c(-c3ccccc3)n2)c(C#N)c1C 4.26%
O=S(=O)(Nc1nc2ccccc2s1)c1ccc(Br)s1 15.3%
CCOc1ccc(Nc2cc(C)nc(-n3nc(C)cc3C)n2)cc1 10.5%
Cc1cc(C)cc(-n2ccnc2SCC(=O)Nc2ccc3c(c2)OCCO3)c1 -3.96%

As a working copy, some entries already given:
Growth inhibition, inactive:
CCOC(=O)c1ccc(-n2[nH]c(-c3ccccc3)cc2=O)cc1 6.72%
COc1ccc(-c2cc(C(=O)N3CCc4ccccc4C3)no2)cc1OC 1.02%
